Measurements as given in the supplement of paper PMC10331698.
± gives the standard deviation of the averaged measurements. Small differences around the control level are noise.

Tests used:
Experiment in all cases: level (log10 ratio to DMSO vehicle control); higher = higher biomarker level / cell amount than vehicle control
[1] = compound: CCOC(=O)CC(=O)C(F)(F)C(F)(F)F [Ethyl pentafluoropropionyl acetate]; conditions: 2200 nM; in DMSO
Description: (§1)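 BioMAP Diversity Plus panel of 12 human primary cell co-culture systems (3C, 4H, LPS, SAg, BT, BF4T, BE3C, CASM3C, HDF3CGF, KF3CT, MyoF, Mphg). Compounds were added 1 h before stimulation and left for 24 h (MyoF 48 h; BT 72 h for soluble read-outs or 6 d for IgG). Biomarkers were read by ELISA, cytotoxicity by SRB, PBMC viability and proliferation by Alamar Blue. Each well value was divided by the mean of 8 DMSO control wells on the same plate and log10 transformed; duplicate blinded samples were tested at 4 concentrations.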

[2] = compound: O=C(O)C(F)(F)OC(F)(F)C(F)(F)OC(F)(F)C(F)(F)OC(F)(F)C(F)(F)C(F)(F)C(F)(F)F [Perfluoro-3,6,9-trioxatridecanoic acid]; conditions: 2200 nM; in DMSO
Description: as §1

[3] = compound: O=C(O)C(F)(F)OC(F)(F)C(F)(F)OC(F)(F)F [Perfluoro-3,6-dioxaheptanoic acid]; conditions: 2200 nM; in DMSO
Description: as §1

Perfluorooctanoic acid = compound: O=C(O)C(F)(F)C(F)(F)C(F)(F)C(F)(F)C(F)(F)C(F)(F)C(F)(F)F [Perfluorooctanoic acid]; conditions: 2200 nM; in DMSO
Description: as §1

[4] = compound: OCC(F)(F)OC(F)(F)C(F)(F)OC(F)(F)C(F)(F)OC(F)(F)CO [1H,1H,11H,11H-Perfluorotetraethylene glycol]; conditions: 2200 nM; in DMSO
Description: as §1

[5] = compound: OCC(F)(F)C(F)(F)C(F)(F)C(F)(F)C(F)(F)C(F)(F)C(F)(F)C(F)(F)CO [1H,1H,10H,10H-Perfluorodecane-1,10-diol]; conditions: 2200 nM; in DMSO
Description: as §1

[6] = compound: C=CC(=O)OCC(F)(F)C(F)(F)C(F)(F)C(F)(F)C(F)(F)C(F)(F)C(F)(F)C(F)F [1H,1H,9H-Perfluorononyl acrylate]; conditions: 2200 nM; in DMSO
Description: as §1

Perfluorodecanoic acid = compound: O=C(O)C(F)(F)C(F)(F)C(F)(F)C(F)(F)C(F)(F)C(F)(F)C(F)(F)C(F)(F)C(F)(F)F [Perfluorodecanoic acid]; conditions: in DMSO
Description: as §1

[7] = compound: O=C(CC(=O)C(F)(F)C(F)(F)C(F)(F)F)c1cccs1 [(Perfluorobutyryl)-2-thenoylmethane]; conditions: 2200 nM; in DMSO
Description: as §1

[8] = compound: O=C(O)CCC(F)(C(F)(F)F)C(F)(F)F [4,4-bis(Trifluoromethyl)-4-fluoropropanoic acid]; conditions: 2200 nM; in DMSO
Description: as §1

Perfluorooctanamidine = compound: N=C(N)C(F)(F)C(F)(F)C(F)(F)C(F)(F)C(F)(F)C(F)(F)C(F)(F)F [Perfluorooctanamidine]; conditions: in DMSO
Description: as §1

[9] = compound: O=C(O)C(F)(F)C(F)(F)C(F)(F)C(F)(F)C(F)(F)C(F)(F)C(F)(F)F [Ammonium perfluorooctanoate]; conditions: 2200 nM; in DMSO
Description: as §1

Perfluorononanoic acid = compound: O=C(O)C(F)(F)C(F)(F)C(F)(F)C(F)(F)C(F)(F)C(F)(F)C(F)(F)C(F)(F)F [Perfluorononanoic acid]; conditions: 2200 nM; in DMSO
Description: as §1

[10] = compound: FC(F)(F)C(F)(F)C(F)(F)C(F)(F)C(F)(F)C(F)(F)C(F)(F)C(F)(F)CCS [2-(Perfluorooctyl)ethanthiol]; conditions: in DMSO
Description: as §1

Test System	level (log10) [1]	level (log10) [2]	level (log10) [3]	level (log10) (Perfluorooctanoic acid)	level (log10) [4]	level (log10) [5]	level (log10) [6]	level (log10) (Perfluorodecanoic acid; 2200 nM)	level (log10) (Perfluorodecanoic acid; 6700 nM)	level (log10) (Perfluorodecanoic acid; 20000 nM)	level (log10) [7]	level (log10) [8]	level (log10) (Perfluorooctanamidine; 2200 nM)	level (log10) (Perfluorooctanamidine; 6700 nM)	level (log10) (Perfluorooctanamidine; 20000 nM)	level (log10) (Perfluorooctanamidine; 60000 nM)	level (log10) [9]	level (log10) (Perfluorononanoic acid)	level (log10) ([10]; 740 nM)	level (log10) ([10]; 2200 nM)
BF4T:CCL2/MCP-1	-0.001 ± 0.037	0.0175 ± 0.023	-0.033 ± 0.02	0.004 ± 0.031	-0.011 ± 0.013	0.011 ± 0.038	0.0095 ± 0.005	0.023 ± 0.031	-0.043 ± 0.03	-0.484 ± 0.11	-0.032 ± 0.03	0.023 ± 0.0014	0.032 ± 0.041	0.031 ± 0.0099	0.025 ± 0.045	0.06	0.021 ± 0.018	-0.012 ± 0.037	-0.0115 ± 0.019	0.0025 ± 0.026
KF3CT:uPA	-0.0165 ± 0.018	0.018 ± 0.0085	-0.029 ± 0.0057	-0.0005 ± 0.016	-0.0105 ± 0.0078	0.0055 ± 0.022	-0.025 ± 0.041	-0.0085 ± 0.005	-0.0095 ± 0.013	0 ± 0.023	0.019 ± 0.0028	-0.0075 ± 0.0078	-0.005 ± 0.02	0.0015 ± 0.0021	0.0165 ± 0.0035	0.01	0.0065 ± 0.032	0.002 ± 0.048	-0.0005 ± 0.0021	-0.005
BE3C:EGFR	-0.027 ± 0.023	-0.0205 ± 0.03	0 ± 0.045	-0.005 ± 0.021	0.0005 ± 0.005	-0.0135 ± 0.005	0.004 ± 0.013	0.0115 ± 0.0035	-0.0135 ± 0.05	-0.149 ± 0.073	-0.0235 ± 0.0092	-0.0035 ± 0.025	0.012 ± 0.027	-0.009 ± 0.0014	-0.013 ± 0.014	-0.022	0.001 ± 0.0014	-0.0045 ± 0.0021	0.043 ± 0.035	0.0305 ± 0.059
3C:CD142/Tissue Factor	0.0115 ± 0.013	0.0065 ± 0.044	-0.018 ± 0.048	0.053 ± 0.028	-0.012 ± 0.092	-0.0315 ± 0.013	0 ± 0.047	-0.013 ± 0.023	-0.013 ± 0.013	-0.029 ± 0.0042	0.0025 ± 0.016	-0.013 ± 0.013	-0.0345 ± 0.0064	-0.02 ± 0.018	-0.0105 ± 0.012	-0.014	0.011 ± 0.011	-0.012 ± 0.04	-0.084 ± 0.069	-0.055 ± 0.031
KF3CT:SRB	0.006 ± 0.0057	-0.0025 ± 0.016	0.005 ± 0.0057	0.0075 ± 0.016	0.007 ± 0.016	0.002 ± 0.016	0.009 ± 0.0099	0.0105 ± 0.011	-0.0325 ± 0.005	-0.036 ± 0.0085	0.001 ± 0.0042	0.004 ± 0.0014	0.0055 ± 0.019	-0.001 ± 0.0014	-0.004 ± 0.0014	0.027	0.0015 ± 0.0064	0.0025 ± 0.0064	0.0025 ± 0.0092	0.0005 ± 0.0078
BF4T:CCL26/Eotaxin-3	0.021 ± 0.069	-0.04 ± 0.035	-0.025 ± 0.023	0.0215 ± 0.063	0.0005 ± 0.052	-0.0265 ± 0.08	-0.038 ± 0.0057	-0.028 ± 0.0071	-0.083 ± 0.038	-0.509 ± 0.029	-0.0965 ± 0.0021	-0.0245 ± 0.11	0.0445 ± 0.053	0.0375 ± 0.044	-0.0585 ± 0.026	-0.106	0.03 ± 0.023	-0.0395 ± 0.0064	-0.0345 ± 0.035	-0.027 ± 0.064
BT:PBMC Cytotoxicity	-0.0145 ± 0.035	0.034 ± 0.038	-0.004 ± 0.025	0.031 ± 0.013	-0.005 ± 0.021	0.0015 ± 0.037	-0.022 ± 0.023	0.034 ± 0.0071	0.0195 ± 0.023	0.045 ± 0.045	0.028 ± 0.02	0.0175 ± 0.005	0.008 ± 0.028	0.005	0 ± 0.031	0.006	-0.009 ± 0.067	0.0025 ± 0.023	0.026 ± 0.021	0.0265 ± 0.005
BF4T:CD54/ICAM-1	-0.006 ± 0.017	-0.017 ± 0.0042	-0.006 ± 0.0042	0.009 ± 0.011	-0.0035 ± 0.019	-0.012 ± 0.031	-0.0195 ± 0.013	-0.001 ± 0.0042	-0.0305 ± 0.0064	-0.181 ± 0.011	0.0005 ± 0.005	0.0155 ± 0.013	0.009 ± 0.0099	-0.001 ± 0.0085	-0.006 ± 0.017	0.039	-0.006 ± 0.0042	-0.006 ± 0.031	0.0095 ± 0.0092	0.0045 ± 0.005
BF4T:SRB	0 ± 0.0028	0.002 ± 0.0057	-0.006 ± 0.0085	-0.003 ± 0.0099	0 ± 0.0028	-0.0055 ± 0.0064	-0.0025 ± 0.0092	0.01 ± 0.011	-0.001 ± 0.0071	-0.256 ± 0.0014	-0.013 ± 0.0085	0.0185 ± 0.015	-0.0035 ± 0.015	-0.009 ± 0.0071	-0.0085 ± 0.0035	-0.004	0.0025 ± 0.0078	0.004 ± 0.0099	-0.013 ± 0.0028	-0.0175 ± 0.00071
SAg:CXCL9/MIG	-0.0115 ± 0.018	-0.0035 ± 0.0035	0.0255 ± 0.013	-0.0025 ± 0.012	-0.011 ± 0.011	-0.017 ± 0.0057	-0.0025 ± 0.005	0 ± 0.014	-0.006 ± 0.011	-0.0025 ± 0.015	-0.002 ± 0.0085	0.001 ± 0.016	0.0085 ± 0.018	0 ± 0.0085	0.0085 ± 0.0021	0.007	0.0055 ± 0.012	0.0075 ± 0.013	-0.0035 ± 0.023	0.0035 ± 0.012
BE3C:SRB	-0.0015 ± 0.0021	-0.003 ± 0.0085	0.0045 ± 0.015	0.007 ± 0.018	0 ± 0.0028	0.002 ± 0.0014	-0.0015 ± 0.00071	-0.003 ± 0.0057	-0.0245 ± 0.005	-0.664 ± 0.021	-0.0035 ± 0.00071	0.0115 ± 0.026	0.01 ± 0.024	-0.0075 ± 0.005	-0.001 ± 0.016	0.009	-0.0085 ± 0.005	0.008 ± 0.011	0.005 ± 0.0028	0.006 ± 0.0085
BE3C:PAI-I	0.022 ± 0.02	-0.113 ± 0.033	-0.0275 ± 0.053	0.007 ± 0.045	0.0215 ± 0.021	0.02 ± 0.0057	-0.0675 ± 0.1	-0.029 ± 0.0042	-0.0475 ± 0.013	-0.4 ± 0.047	-0.137 ± 0.0099	0.0095 ± 0.016	0.026 ± 0.038	0.0015 ± 0.00071	-0.006 ± 0.0099	-0.021	-0.0025 ± 0.016	-0.0195 ± 0.033	-0.072 ± 0.04	-0.019 ± 0.031
